In assay [1] the target is glycogen synthase kinase 3 beta (GSK3B) (human (endogenous in JEKO-1)) (UniProt P49841). The assay can be described thus: co-IP; reverse co-IP: JEKO-1 cell lines expressing EV, WT or mutant CCND1-HA immunoprecipitated with GSK3B antibody and immunoblotted.
For the next assay, the target named is Y44D CCND1-HA (human) (UniProt P24385). The assay can be described thus: co-IP; JEKO-1 lysates (25 mM Tris-HCl pH 7.4, 150 mM NaCl, 1% NP-40, 1 mM EDTA, 5% glycerol) precleared with IgG1 isotype control and protein A agarose; about 1.5 mg lysate with HA antibody-conjugated agarose beads overnight at 4°C; washed 4 times in PBS with 0.5% NP40; immunoblot.
For the next assay, the target named is C47S CCND1-HA (human) (UniProt P24385). Described as above.
Assay [2] deals with wild type CCND1-HA (cyclin D1, carboxy-terminus HA-tagged) (human) (UniProt P24385). Described as above.

The chains behind the UniProt entries cited, without tags or fusion partners. Where a name states a change or a piece, a line headed by the entry shows the natural chain unless it says otherwise.
UniProt P49841: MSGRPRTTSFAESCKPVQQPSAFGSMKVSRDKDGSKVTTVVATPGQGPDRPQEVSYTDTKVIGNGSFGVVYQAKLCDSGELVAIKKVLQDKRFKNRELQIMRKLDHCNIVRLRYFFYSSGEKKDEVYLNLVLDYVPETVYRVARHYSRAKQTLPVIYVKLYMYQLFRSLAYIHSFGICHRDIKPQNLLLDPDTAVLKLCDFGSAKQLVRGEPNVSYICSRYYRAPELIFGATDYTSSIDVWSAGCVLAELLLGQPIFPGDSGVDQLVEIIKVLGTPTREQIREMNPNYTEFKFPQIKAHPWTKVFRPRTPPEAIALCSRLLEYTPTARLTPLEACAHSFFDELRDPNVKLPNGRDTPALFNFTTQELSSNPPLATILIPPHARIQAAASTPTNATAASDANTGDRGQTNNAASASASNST
UniProt P24385: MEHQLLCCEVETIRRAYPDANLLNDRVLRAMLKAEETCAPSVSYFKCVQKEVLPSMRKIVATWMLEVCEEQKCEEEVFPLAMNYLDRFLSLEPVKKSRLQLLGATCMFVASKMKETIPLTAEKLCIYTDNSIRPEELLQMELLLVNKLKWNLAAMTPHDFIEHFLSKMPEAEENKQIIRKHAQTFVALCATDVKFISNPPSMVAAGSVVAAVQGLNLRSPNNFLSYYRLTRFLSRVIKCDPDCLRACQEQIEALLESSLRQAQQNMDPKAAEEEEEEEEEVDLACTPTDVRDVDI

Consider five substances from PMC5341999.

No constants are given. Whether binding was seen depends on the method and setting. In cells and extracts the contact can be indirect. Some binding calls cover weakened binding; strength is not graded here.

Take “Y44D CCND1-HA (from UniProt P24385 1-295)”: in assay [1], the binding result is recorded as “binds”.

For the substance “wild type CCND1-HA (cyclin D1, carboxy-terminus HA-tagged) (from UniProt P24385 1-295)”, the binding result in assay [1] is recorded as “binds”.

As to “C47S CCND1-HA (from UniProt P24385 1-295)”, the binding entry in assay [1] was “binds”. Take “glycogen synthase kinase 3 beta (GSK3B) (from UniProt P49841 1-420) (enzyme)”: the binding result (in the assay with Y44D CCND1-HA (human); with C47S CCND1-HA (human); in assay [2]) was “binds” in each case. Take “T286A CCND1-HA (from UniProt P24385 1-295)”: the binding entry in assay [1] is listed as “binds”.
